For assay [1], the target named is WW domain containing transcription regulator 1 (human (endogenous in HUVEC)) (UniProt Q9GZV5). Kind of assay: co-IP; immunoprecipitation of Yap1/Taz from HUVEC RIPA lysates (hypoxic conditions), Dynabeads protein-G, 4°C, five washes with lysis buffer without SDS and deoxycholate; immunoblotting of HIF1α and Yap1/Taz; IgG as negative control.
For assay [2], the target named is Yes-associated protein 1 (human (endogenous in HUVEC)) (UniProt P46937). Described as above.

By UniProt entry, the sequences of proteins in these tests, tags left out.
UniProt Q9GZV5: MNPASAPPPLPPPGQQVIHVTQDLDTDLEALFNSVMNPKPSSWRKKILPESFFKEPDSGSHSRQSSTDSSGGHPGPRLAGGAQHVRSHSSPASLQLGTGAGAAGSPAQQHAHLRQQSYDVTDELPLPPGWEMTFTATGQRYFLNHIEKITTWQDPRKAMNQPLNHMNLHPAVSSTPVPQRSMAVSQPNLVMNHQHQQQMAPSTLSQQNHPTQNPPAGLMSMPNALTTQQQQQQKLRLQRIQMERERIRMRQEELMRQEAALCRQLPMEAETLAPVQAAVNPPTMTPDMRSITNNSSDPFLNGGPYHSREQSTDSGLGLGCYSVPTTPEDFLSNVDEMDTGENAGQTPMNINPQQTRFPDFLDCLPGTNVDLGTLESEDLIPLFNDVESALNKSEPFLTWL
UniProt P46937: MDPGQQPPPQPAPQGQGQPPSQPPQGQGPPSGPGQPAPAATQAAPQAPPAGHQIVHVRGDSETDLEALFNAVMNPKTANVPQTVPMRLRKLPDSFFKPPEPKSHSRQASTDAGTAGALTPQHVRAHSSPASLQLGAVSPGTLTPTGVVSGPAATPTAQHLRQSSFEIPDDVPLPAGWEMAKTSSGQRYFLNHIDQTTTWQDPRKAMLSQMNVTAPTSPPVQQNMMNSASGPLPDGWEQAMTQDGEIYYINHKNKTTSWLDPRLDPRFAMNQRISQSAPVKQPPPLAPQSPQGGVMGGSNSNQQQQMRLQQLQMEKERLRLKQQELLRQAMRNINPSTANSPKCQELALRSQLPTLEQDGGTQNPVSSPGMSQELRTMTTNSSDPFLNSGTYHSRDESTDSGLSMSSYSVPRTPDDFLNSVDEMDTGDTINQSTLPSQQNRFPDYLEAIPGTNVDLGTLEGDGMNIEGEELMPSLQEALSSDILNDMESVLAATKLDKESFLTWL
UniProt Q16665: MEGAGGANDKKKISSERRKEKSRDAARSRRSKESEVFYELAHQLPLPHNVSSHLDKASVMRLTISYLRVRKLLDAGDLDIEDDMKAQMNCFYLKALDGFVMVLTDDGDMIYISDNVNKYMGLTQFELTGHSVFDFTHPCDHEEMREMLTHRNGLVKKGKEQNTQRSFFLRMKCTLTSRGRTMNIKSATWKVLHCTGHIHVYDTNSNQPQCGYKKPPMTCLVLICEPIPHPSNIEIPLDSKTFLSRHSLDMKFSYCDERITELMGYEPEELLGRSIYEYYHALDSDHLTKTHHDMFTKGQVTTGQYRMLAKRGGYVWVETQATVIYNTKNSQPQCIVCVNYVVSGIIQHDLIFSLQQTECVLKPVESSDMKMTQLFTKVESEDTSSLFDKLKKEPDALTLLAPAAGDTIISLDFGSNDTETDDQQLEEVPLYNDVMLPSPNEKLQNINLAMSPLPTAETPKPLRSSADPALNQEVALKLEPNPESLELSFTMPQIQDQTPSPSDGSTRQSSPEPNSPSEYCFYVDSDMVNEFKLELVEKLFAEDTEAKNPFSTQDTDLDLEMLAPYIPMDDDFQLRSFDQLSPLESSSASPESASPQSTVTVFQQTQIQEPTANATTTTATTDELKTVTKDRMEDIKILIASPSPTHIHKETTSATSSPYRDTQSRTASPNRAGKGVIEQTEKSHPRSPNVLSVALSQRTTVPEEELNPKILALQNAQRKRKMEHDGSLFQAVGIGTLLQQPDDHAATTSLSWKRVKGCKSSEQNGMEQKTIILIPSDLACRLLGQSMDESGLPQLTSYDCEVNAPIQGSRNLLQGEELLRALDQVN

No constants are given. Whether binding was seen depends on the method and setting. In cells and extracts the contact can be indirect. Some binding calls cover weakened binding; strength is not graded here.

Consider one substance from article PMC6970532.

On to “hypoxia-inducible factor 1α (from UniProt Q16665 1-826)”, for which the binding result in assay [1] and in assay [2] was “binds” each time.
